Laboratory results: article PMC8102066 (eLife, 2021)
Several values for one entry are separate records, joined by “and”; a condition that tells them apart may be missing. Equal entries are not always repeated.

Tested on: SNAP-tagged mGluR2 and mGluR3 constructs
Test: SiMPull subunit counting, percent dimerization of constructs without ligand
Set-up: species or system rat
Details: construct without ligand; single replicates per experiment day

B1: SNAP-mGluR3-C127A-I788A (protein)
chain: LGDHNFMRREIKIEGDLVLGGLFPINEKGTGTEECGRINEDRGIQRLEAMLFAIDEINKDNYLLPGVKLGVHILDTCSRDTYALEQSLEFVRASLTKVDEAEYMAPDGSYAIQENIPLLIAGVIGGSYSSVSIQVANLLRLFQIPQISYASTSAKLSDKSRYDYFARTVPPDFYQAKAMAEILRFFNWTYVSTVASEGDYGETGIEAFEQEARLRNICIATAEKVGRSNIRKSYDSVIRELLQKPNARVVVLFMRSDDSRELIAAANRVNASFTWVASDGWGAQESIVKGSEHVAYGAITLELASHPVRQFDRYFQSLNPYNNHRNPWFRDFWEQKFQCSLQNKRNHRQVCDKHLAIDSSNYEQESKIMFVVNAVYAMAHALHKMQRTLCPNTTKLCDAMKILDGKKLYKEYLLKINFTAPFNPNKGADSIVKFDTFGDGMGRYNVFNLQQTGGKYSYLKVGHWAETLSLDVDSIHWSRNSVPTSQCSDPCAPNEMKNMQPGDVCCWICIPCEPYEYLVDEFTCMDCGPGQWPTADLSGCYNLPEDYIKWEDAWAIGPVTIACLGFLCTCIVITVFIKHNNTPLVKASGRELCYILLFGVSLSYCMTFFFIAKPSPVICALRRLGLGTSFAICYSALLTKTNCIARIFDGVKNGAQRPKFISPSSQVFICLGLILVQIVMVSVWLILETPGTRRYTLPEKRETVILKCNVKDSSMLISLTYDVVLVILCTVYAFKTRKCPENFNEAKFIGFTMYTTCIIWLAFLPAFYVTSSDYRVQTTTMCISVSLSGFVVLGCLFAPKVHIVLFQPQKNVVTHRLHLNRFSVSGTATTYSQSSASTYVPTVCNGREVLDSTTSSL
modifications: SNAP tag labelled with BG-LD555; left off: HA, N-terminal, kept | SNAP, N-terminal, kept
  % Dimerization: 31.77% and 34.44% and 36.00% and 38.24% and 44.05% and 29.32%
